In patent publication US9102678B2, “Compounds and methods for inhibiting mitotic progression” (Millennium Pharmaceuticals, Inc., priority 2004, dated 2015):
Some of these results come from one statement about several compounds together.

Amino acid sequences for entries named in this document (tags omitted). A change or cut given only in a name is not applied to a line headed by its entry.
UniProt P97477: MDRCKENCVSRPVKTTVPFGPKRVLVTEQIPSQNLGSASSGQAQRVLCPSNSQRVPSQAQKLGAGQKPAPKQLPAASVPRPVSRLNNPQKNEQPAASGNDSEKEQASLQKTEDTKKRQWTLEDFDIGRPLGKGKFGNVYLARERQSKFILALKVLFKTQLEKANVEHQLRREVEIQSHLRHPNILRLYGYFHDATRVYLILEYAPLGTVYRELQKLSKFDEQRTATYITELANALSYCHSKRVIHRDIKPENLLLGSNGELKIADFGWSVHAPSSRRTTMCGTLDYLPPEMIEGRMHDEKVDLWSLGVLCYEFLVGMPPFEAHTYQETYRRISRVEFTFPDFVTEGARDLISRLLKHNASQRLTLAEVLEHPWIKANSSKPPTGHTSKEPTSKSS

Target: T1, recombinant murine Aurora A enzyme (Mus musculus, UniProt P97477)
T1 construct: hexahistidine (His6) (N); made in house; host or cells: insect cells, baculovirus (Bac-to-Bac, Invitrogen)
Experiment: Aurora A DELFIA Kinase Assay
Type: biochemical
Settings: 250 μM ATP, threshold less than or equal to 1.0 μM

SMILES	IC50 [µM]
Cc1ccccc1C1=NCc2cnc(Nc3ccc(C(=O)N4CCN(C)CC4)cc3)nc2-c2ccc(Cl)cc21 [Compound I-11, [4-(9-Chloro-7-o-tolyl-5H-benzo[c]pyrimido[4,5-e]azepin-2-ylamino)-phenyl]-(4-methyl-piperazin-1-yl)-methanone]	≤ 1
CN(CCN)C(=O)c1ccc(Nc2ncc3c(n2)-c2ccc(Cl)cc2C(c2ccccc2F)=NC3)cc1 [Compound I-2, N-(2-Amino-ethyl)-4-[9-chloro-7-(2-fluoro-phenyl)-5H-benzo[c]pyrimido[4,5-e]azepin-2-ylamino]-N-methyl-benzamide]	≤ 1
CN(C)CC#Cc1cccc(Nc2ncc3c(n2)-c2ccc(Cl)cc2C(c2c(F)cccc2F)=NC3)c1 [Compound I-343, 9-chloro-7-(2,6-difluorophenyl)-N-{3-[3-(dimethylamino)prop-1-yn-1-yl]phenyl}-5H-pyrimido[5,4-d][2]benzazepin-2-amine]	≤ 1
COc1cccc(Nc2ncc3c(n2)-c2ccc(C(=O)O)cc2C(c2ccccc2F)=NC3)c1 [Compound I-256, 7-(2-fluorophenyl)-2-[(3-methoxyphenyl)amino]-5H-pyrimido[5,4-d][2]benzazepine-9-carboxylic acid]	≤ 1
O=C(O)Cc1cccc(Nc2ncc3c(n2)-c2ccc(Cl)cc2C(c2ccccc2Cl)=NC3)c1 [Compound I-65, {3-[9-Chloro-7-(2-chloro-phenyl)-5H-benzo[c]pyrimido[4,5-e]azepin-2-ylamino]-phenyl}-acetic acid]	≤ 1
CCOC(=O)C1CN=C(c2ccc(Nc3ncc4c(n3)-c3ccc(Cl)cc3C(c3c(F)cccc3F)=NC4)cc2)N1 (stereo not shown) [Compound I-314, ethyl 2-(4-{[9-chloro-7-(2,6-difluorophenyl)-5H-pyrimido[5,4-d][2]benzazepin-2-yl]amino}phenyl)-4,5-dihydro-1H-imidazole-5-carboxylate]	≤ 1
O=C(O)c1ccccc1N1CCN(C(=O)c2ccc(Nc3ncc4c(n3)-c3ccc(Cl)cc3C(c3ccccc3F)=NC4)cc2)CC1 [Compound I-169, 2-[4-(4-{[9-Chloro-7-(2-fluorophenyl)-5H-pyrimido[5,4-d][2]benzazepin-2-yl]amino}benzoyl)piperazin-1-yl]benzoic acid]	≤ 1
CN(C)CCN(C)C(=O)c1ccc(Nc2ncc3c(n2)-c2ccc(Cl)cc2C(c2c(F)cccc2F)=NC3)cc1 [Compound I-247, 4-{[9-chloro-7-(2,6-difluorophenyl)-5H-pyrimido[5,4-d][2]benzazepin-2-yl]amino}-N-[2-(dimethylamino)ethyl]-N-methylbenzamide]	≤ 1
O=C(O)c1ccc(Nc2ncc3c(n2)-c2ccc(Cl)cc2C(c2ccccc2F)=NC3)cc1 [Compound I-52, 4-[9-Chloro-7-(2-fluoro-phenyl)-5H-benzo[c]pyrimido[4,5-e]azepin-2-ylamino]-benzoic acid]	≤ 1
COc1ccc(Nc2ncc3c(n2)-c2ccc(Cl)cc2C(c2ccccc2Cl)=NC3)cc1OC [Compound I-73, [9-Chloro-7-(2-chloro-phenyl)-5H-benzo[c]pyrimido[4,5-e]azepin-2-yl]-(3,4-dimethoxy-phenyl)-amine]	≤ 1
CCCN(CCC)CCN1CCN(C(=O)c2ccc(Nc3ncc4c(n3)-c3ccc(Cl)cc3C(c3ccccc3F)=NC4)cc2)CC1 [Compound I-187, {4-[9-Chloro-7-(2-fluoro-phenyl)-5H-benzo[c]pyrimido[4,5-e]azepin-2-ylamino]-phenyl}-[4-(2-dipropylamino-ethyl)-piperazin-1-yl]-methanone]	≤ 1
CN(C)C1CCN(C(=O)c2ccc(Nc3ncc4c(n3)-c3ccc(Cl)cc3C(c3c(F)cccc3F)=NC4)cc2Cl)CC1 [Compound I-313, 9-chloro-N-(3-chloro-4-{[4-(dimethylamino)piperidin-1-yl]carbonyl}phenyl)-7-(2,6-difluorophenyl)-5H-pyrimido[5,4-d][2]benzazepin-2-amine]	≤ 1
CCOC(=O)[C@@H](CCN)NC(=O)c1ccc(Nc2ncc3c(n2)-c2ccc(Cl)cc2C(c2c(F)cccc2F)=NC3)cc1 [Compound I-309, ethyl (2R)-4-amino-2-[(4-{[9-chloro-7-(2,6-difluorophenyl)-5H-pyrimido[5,4-d][2]benzazepin-2-yl]amino}benzoyl)amino]butanoate]	≤ 1
CN(C)CCCc1cccc(Nc2ncc3c(n2)-c2ccc(Cl)cc2C(c2c(F)cccc2F)=NC3)c1 [Compound I-372, 9-chloro-7-(2,6-difluorophenyl)-N-{3-[3-(dimethylamino)propyl]phenyl}-5H-pyrimido[5,4-d][2]benzazepin-2-amine]	≤ 1
COc1cccc(F)c1C1=NCc2cnc(Nc3ccc(C(=O)N4CC(N(C)C)C4)cc3)nc2-c2ccc(Cl)cc21 [Compound I-179, 9-Chloro-N-(4-{[3-(dimethylamino)azetidin-1-yl]carbonyl}phenyl)-7-(2-fluoro-6-methoxyphenyl)-5H-pyrimido[5,4-d][2]benzazepin-2-amine]	≤ 1
O=C(O)c1ccc(Nc2ncc3c(n2)-c2ccc(F)cc2C(c2ccccc2F)=NC3)cc1 [Compound I-57, 4-[9-Fluoro-7-(2-fluoro-phenyl)-5H-benzo[c]pyrimido[4,5-e]azepin-2-ylamino]-benzoic acid]	≤ 1

SMILES	IC50 [µM]
O=C(O)c1ccc(Nc2ncc3c(n2)-c2ccc(Cl)cc2C(c2c(F)cccc2Cl)=NC3)cc1 [Compound I-174, 4-{[9-Chloro-7-(2-chloro-6-fluorophenyl)-5H-pyrimido-[5,4-d][2]benzazepin-2-yl]amino}benzoic acid]	≤ 1
CNC(=O)C1(N)CCN(C(=O)c2ccc(Nc3ncc4c(n3)-c3ccc(Cl)cc3C(c3c(F)cccc3F)=NC4)cc2)CC1 [Compound I-341, 4-amino-1-(4-{[9-chloro-7-(2,6-difluorophenyl)-5H-pyrimido[5,4-d][2]benzazepin-2-yl]amino}benzoyl)-N-methylpiperidine-4-carboxamide]	≤ 1
O=C(c1ccc(Nc2ncc3c(n2)-c2ccc(Cl)cc2C(c2ccccc2Cl)=NC3)cc1)N1CCOCC1 [Compound I-28, {4-[9-Chloro-7-(2-chloro-phenyl)-5H-benzo[c]pyrimido[4,5-e]azepin-2-ylamino]-phenyl}-morpholin-4-yl-methanone]	≤ 1
CN(CCCN)C(=O)c1ccc(Nc2ncc3c(n2)-c2ccc(Cl)cc2C(c2ccccc2F)=NC3)cc1 [Compound I-117, N-(3-Amino-propyl)-4-[9-chloro-7-(2-fluoro-phenyl)-5H-benzo[c]pyrimido[4,5-e]azepin-2-ylamino]-N-methyl-benzamide]	≤ 1
CN(C)C1CN(C(=O)c2ccc(Nc3ncc4c(n3)-c3ccc(Cl)cc3C(c3c(F)cccc3F)=NC4)cc2)C1 [Compound I-180, 9-Chloro-7-(2,6-difluorophenyl)-N-(4-{[3-(dimethylamino)azetidin-1-yl]carbonyl}phenyl)-5H-pyrimido[5,4-d][2]benzazepin-2-amine]	≤ 1
OC1CN=C(c2ccc(Nc3ncc4c(n3)-c3ccc(Cl)cc3C(c3c(F)cccc3F)=NC4)cc2)NC1 (stereo not shown) [Compound I-285, 2-(4-{[9-chloro-7-(2,6-difluorophenyl)-5H-pyrimido[5,4-d][2]benzazepin-2-yl]amino}phenyl)-1,4,5,6-tetrahydropyrimidin-5-ol]	≤ 1
CN(C)C1CN(C(=O)c2ccc(Nc3ncc4c(n3)-c3ccc(Cl)cc3C(c3ccccc3F)=NC4)cc2)C1 [Compound I-98, {4-[9-Chloro-7-(2-fluoro-phenyl)-5H-benzo[c]pyrimido[4,5-e]azepin-2-ylamino]-phenyl}-(3-dimethylamino-azetidin-1-yl)-methanone]	≤ 1
COc1cccc(F)c1C1=NCc2cnc(Nc3ccc(C(=O)N(C)CCN(C)C)cc3)nc2-c2ccc(Cl)cc21 [Compound I-255, 4-{[9-chloro-7-(2-fluoro-6-methoxyphenyl)-5H-pyrimido[5,4-d][2]benzazepin-2-yl]amino}-N-[2-(dimethylamino)ethyl]-N-methylbenzamide]	≤ 1
COc1ccc(OC)c(C2=NCc3cnc(Nc4ccc(C(=O)O)cc4)nc3-c3ccc(Cl)cc32)c1 [Compound I-94, 4-[9-Chloro-7-(2,5-dimethoxy-phenyl)-5H-benzo[c]pyrimido-[4,5-e]azepin-2-ylamino]-benzoic acid]	≤ 1
CN(C)C1CCN(C(=O)c2ccc(Nc3ncc4c(n3)-c3ccc(Cl)cc3C(c3ccccc3F)=NC4)cc2)CC1 [Compound I-18, {4-[9-Chloro-7-(2-fluoro-phenyl)-5H-benzo[c]pyrimido[4,5-e]azepin-2-ylamino]-phenyl}-(4-dimethylamino-piperidin-1-yl)-methanone]	≤ 1
CN(C)CCCN(C)C(=O)c1ccc(Nc2ncc3c(n2)-c2ccc(Cl)cc2C(c2ccccc2F)=NC3)cc1 [Compound I-7, 4-[9-Chloro-7-(2-fluoro-phenyl)-5H-benzo[c]pyrimido[4,5-e]azepin-2-ylamino]-N-(3-dimethylamino-propyl)-N-methyl-benzamide]	≤ 1
CC(C)NC(=O)CN1CCN(C(=O)c2ccc(Nc3ncc4c(n3)-c3ccc(Cl)cc3C(c3ccccc3F)=NC4)cc2)CC1 [Compound I-170, 2-[4-(4-{[9-Chloro-7-(2-fluorophenyl)-5H-pyrimido[5,4-d][2]benzazepin-2-yl]amino}benzoyl)piperazin-1-yl]-N-isopropylacetamide]	≤ 1
NC1CCN(C(=O)c2ccc(Nc3ncc4c(n3)-c3ccc(Cl)cc3C(c3ccccc3C(F)(F)F)=NC4)cc2)C1 (stereo not shown) [Compound I-289, N-{4-[(3-aminopyrrolidin-1-yl)carbonyl]phenyl}-9-chloro-7-[2-(trifluoromethyl)phenyl]-5H-pyrimido[5,4-d][2]benzazepin-2-amine]	≤ 1
COc1cccc(F)c1C1=NCc2cnc(Nc3ccc(C(=O)N4CCNC(C)C4)cc3)nc2-c2ccc(Cl)cc21 (stereo not shown) [Compound I-232]	≤ 1
CNCCCN(C)C(=O)c1ccc(Nc2ncc3c(n2)-c2ccc(Cl)cc2C(c2c(F)cccc2OC)=NC3)cc1 [Compound I-261, 4-{[9-chloro-7-(2-fluoro-6-methoxyphenyl)-5H-pyrimido[5,4-d][2]benzazepin-2-yl]amino}-N-methyl-N-[3-(methylamino)propyl]benzamide]	≤ 1
